# The supplement of paper PMC8728848
# This is one part of the list.
# B1: pTFF2 (Sus scrofa), P01359 (protein)
# chain: KPAACRCSRQDPKNRVNCGFPGITSDQCFTSGCCFDSQVPGVPWCFKPLPAQESEECVMEVSARKNCGYPGISPEDCAARNCCFSDTIPEVPWCFFPMSVEACHY
# Columns and labels:
# Assay in all cases: glycan array binding signal (z-score within array); higher = stronger binding
# Conditions in all cases: glycan notation: IUPAC condensed, linker removed
# [1] = molecular target: Neu5Ac(a2-3)Gal6S(b1-4)[Fuc(a1-3)]GlcNAc
# Method in brief: (§1)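 Negative Z-scores can be read as non-binding. The Z-score is calculated within each array and then averaged across arrays of one protein sequence at different concentrations or buffers and across linkers. Arrays, 3228 in all, were curated from the Consortium for Functional Glycomics database and kept only where the protein sequence was available.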
# [2] = molecular target: Neu5Ac(a2-3)GalNAc
# Method in brief: as §1
# [3] = molecular target: Neu5Ac(a2-3)GalNAc(b1-4)GlcNAc
# Method in brief: as §1
# [4] = molecular target: Neu5Ac(a2-3)[GalNAc(b1-4)]Gal(b1-4)Glc
# Method in brief: as §1
# [5] = molecular target: Neu5Ac(a2-3)[GalNAc(b1-4)]Gal(b1-4)GlcNAc
# Method in brief: as §1
# [6] = molecular target: Neu5Ac(a2-3)[GalNAc(b1-4)]Gal(b1-4)GlcNAc(b1-3)GalNAc
# Method in brief: as §1
# [7] = molecular target: Neu5Ac(a2-3)[Neu5Ac(a2-6)]GalNAc
# Method in brief: as §1
# [8] = molecular target: Neu5Ac(a2-6)Gal
# Method in brief: as §1
# [9] = molecular target: Neu5Ac(a2-6)Gal(b1-3)GlcNAc(b1-3)[Gal(b1-4)GlcNAc(b1-6)]Gal(b1-4)Glc
# Method in brief: as §1
# [10] = molecular target: Neu5Ac(a2-6)Gal(b1-4)Glc
# Method in brief: as §1
# [11] = molecular target: Neu5Ac(a2-6)Gal(b1-4)GlcNAc
# Method in brief: as §1
# [12] = molecular target: Neu5Ac(a2-6)Gal(b1-4)GlcNAc(b1-2)Man
# Method in brief: as §1
# [13] = molecular target: Neu5Ac(a2-6)Gal(b1-4)GlcNAc(b1-2)Man(a1-3)Man(b1-4)GlcNAc(b1-4)GlcNAc
# Method in brief: as §1
# [14] = molecular target: Neu5Ac(a2-6)Gal(b1-4)GlcNAc(b1-2)Man(a1-3)[Gal(b1-4)GlcNAc(b1-2)Man(a1-6)]Man(b1-4)GlcNAc(b1-4)GlcNAc
# Method in brief: as §1
# [15] = molecular target: Neu5Ac(a2-6)Gal(b1-4)GlcNAc(b1-2)Man(a1-3)[GlcNAc(b1-2)Man(a1-6)]Man(b1-4)GlcNAc(b1-4)GlcNAc
# Method in brief: as §1
# [16] = molecular target: Neu5Ac(a2-6)Gal(b1-4)GlcNAc(b1-2)Man(a1-3)[GlcNAc(b1-4)][Neu5Ac(a2-6)Gal(b1-4)GlcNAc(b1-2)Man(a1-6)]Man(b1-4)GlcNAc(b1-4)GlcNAc
# Method in brief: as §1
# [17] = molecular target: Neu5Ac(a2-6)Gal(b1-4)GlcNAc(b1-2)Man(a1-3)[Man(a1-6)]Man(b1-4)GlcNAc(b1-4)GlcNAc
# Method in brief: as §1
# [18] = molecular target: Neu5Ac(a2-6)Gal(b1-4)GlcNAc(b1-2)Man(a1-3)[Neu5Ac(a2-3)Gal(b1-4)GlcNAc(b1-2)Man(a1-6)]Man(b1-4)GlcNAc(b1-4)GlcNAc
# Method in brief: as §1
# [19] = molecular target: Neu5Ac(a2-6)Gal(b1-4)GlcNAc(b1-2)Man(a1-3)[Neu5Ac(a2-6)Gal(b1-4)GlcNAc(b1-2)Man(a1-6)]Man(b1-4)GlcNAc(b1-4)GlcNAc
# Method in brief: as §1
# [20] = molecular target: Neu5Ac(a2-6)Gal(b1-4)GlcNAc(b1-2)Man(a1-3)[Neu5Ac(a2-6)Gal(b1-4)GlcNAc(b1-2)Man(a1-6)]Man(b1-4)GlcNAc(b1-4)[Fuc(a1-6)]GlcNAc
# Method in brief: as §1
# [21] = molecular target: Neu5Ac(a2-6)Gal(b1-4)GlcNAc(b1-2)Man(a1-6)Man(b1-4)GlcNAc(b1-4)GlcNAc
# Method in brief: as §1
# [22] = molecular target: Neu5Ac(a2-6)Gal(b1-4)GlcNAc(b1-2)Man(a1-6)[Gal(b1-4)GlcNAc(b1-2)Man(a1-3)]Man(b1-4)GlcNAc(b1-4)GlcNAc
# Method in brief: as §1
# [23] = molecular target: Neu5Ac(a2-6)Gal(b1-4)GlcNAc(b1-2)Man(a1-6)[GlcNAc(b1-2)Man(a1-3)]Man(b1-4)GlcNAc(b1-4)GlcNAc
# Method in brief: as §1
# [24] = molecular target: Neu5Ac(a2-6)Gal(b1-4)GlcNAc(b1-2)Man(a1-6)[Man(a1-3)]Man(b1-4)GlcNAc(b1-4)GlcNAc
# Method in brief: as §1
# [25] = molecular target: Neu5Ac(a2-6)Gal(b1-4)GlcNAc(b1-2)[Neu5Ac(a2-6)Gal(b1-4)GlcNAc(b1-4)]Man(a1-3)[GlcNAc(b1-4)][Neu5Ac(a2-6)Gal(b1-4)GlcNAc(b1-2)[Neu5Ac(a2-6)Gal(b1-4)GlcNAc(b1-6)]Man(a1-6)]Man(b1-4)GlcNAc(b1-4)GlcNAc
# Method in brief: as §1
# [26] = molecular target: Neu5Ac(a2-6)Gal(b1-4)GlcNAc(b1-2)[Neu5Ac(a2-6)Gal(b1-4)GlcNAc(b1-4)]Man(a1-3)[GlcNAc(b1-4)][Neu5Ac(a2-6)Gal(b1-4)GlcNAc(b1-4)Man(a1-6)]Man(b1-4)GlcNAc(b1-4)GlcNAc
# Method in brief: as §1
# [27] = molecular target: Neu5Ac(a2-6)Gal(b1-4)GlcNAc(b1-2)[Neu5Ac(a2-6)Gal(b1-4)GlcNAc(b1-6)]Man(a1-6)[Neu5Ac(a2-6)Gal(b1-4)GlcNAc(b1-2)Man(a1-3)][GlcNAc(b1-4)]Man(b1-4)GlcNAc(b1-4)GlcNAc
# Method in brief: as §1
# [28] = molecular target: Neu5Ac(a2-6)Gal(b1-4)GlcNAc(b1-3)Gal(b1-3)GlcNAc
# Method in brief: as §1
# [29] = molecular target: Neu5Ac(a2-6)Gal(b1-4)GlcNAc(b1-3)Gal(b1-4)GlcNAc
# Method in brief: as §1
# [30] = molecular target: Neu5Ac(a2-6)Gal(b1-4)GlcNAc(b1-3)Gal(b1-4)GlcNAc(b1-2)Man(a1-3)[Neu5Ac(a2-6)Gal(b1-4)GlcNAc(b1-3)Gal(b1-4)GlcNAc(b1-2)Man(a1-6)]GalNAc
# Method in brief: as §1
# [31] = molecular target: Neu5Ac(a2-6)Gal(b1-4)GlcNAc(b1-3)Gal(b1-4)GlcNAc(b1-3)Gal(b1-4)GlcNAc
# Method in brief: as §1
# [32] = molecular target: Neu5Ac(a2-6)Gal(b1-4)GlcNAc(b1-3)Gal(b1-4)GlcNAc(b1-3)Gal(b1-4)GlcNAc(b1-2)Man(a1-3)[Neu5Ac(a2-6)Gal(b1-4)GlcNAc(b1-3)Gal(b1-4)GlcNAc(b1-3)Gal(b1-4)GlcNAc(b1-2)Man(a1-6)]GalNAc
# Method in brief: as §1
# [33] = molecular target: Neu5Ac(a2-6)Gal(b1-4)GlcNAc(b1-3)Gal(b1-4)GlcNAc(b1-3)GalNAc
# Method in brief: as §1
# [34] = molecular target: Neu5Ac(a2-6)Gal(b1-4)GlcNAc(b1-3)Gal(b1-4)GlcNAc(b1-3)[Neu5Ac(a2-6)Gal(b1-4)GlcNAc(b1-3)Gal(b1-4)GlcNAc(b1-6)]GalNAc
# Method in brief: as §1
# [35] = molecular target: Neu5Ac(a2-6)Gal(b1-4)GlcNAc(b1-3)Gal(b1-4)GlcNAc(b1-6)[Gal(b1-3)]GalNAc
# Method in brief: as §1
# [36] = molecular target: Neu5Ac(a2-6)Gal(b1-4)GlcNAc(b1-3)Gal(b1-4)[Fuc(a1-3)]GlcNAc(b1-3)Gal(b1-4)[Fuc(a1-3)]GlcNAc
# Method in brief: as §1
# [37] = molecular target: Neu5Ac(a2-6)Gal(b1-4)GlcNAc(b1-3)GalNAc
# Method in brief: as §1
# [38] = molecular target: Neu5Ac(a2-6)Gal(b1-4)GlcNAc(b1-3)[Neu5Ac(a2-6)Gal(b1-4)GlcNAc(b1-6)]GalNAc
# Method in brief: as §1
# [39] = molecular target: Neu5Ac(a2-6)Gal(b1-4)GlcNAc(b1-6)GalNAc
# Method in brief: as §1
# [40] = molecular target: Neu5Ac(a2-6)Gal(b1-4)GlcNAc(b1-6)[Gal(b1-3)GlcNAc(b1-3)]Gal(b1-4)Glc
# Method in brief: as §1
# [41] = molecular target: Neu5Ac(a2-6)Gal(b1-4)GlcNAc(b1-6)[Gal(b1-3)]GalNAc
# Method in brief: as §1
# [42] = molecular target: Neu5Ac(a2-6)Gal(b1-4)GlcNAc6S
# Method in brief: as §1
# [43] = molecular target: Neu5Ac(a2-6)GalNAc
# Method in brief: as §1
# [44] = molecular target: Neu5Ac(a2-6)GalNAc(b1-4)GlcNAc
# Method in brief: as §1
# [45] = molecular target: Neu5Ac(a2-6)GalNAc(b1-4)GlcNAc6S
# Method in brief: as §1
binder,measurement,setting,value
B1,glycan array binding signal (z-score),[1],-0.271
same,glycan array binding signal (z-score),[2],1.05
same,glycan array binding signal (z-score),[3],0.002
same,glycan array binding signal (z-score),[4],0.101
same,glycan array binding signal (z-score),[5],1.54
same,glycan array binding signal (z-score),[6],-1.24
same,glycan array binding signal (z-score),[7],-1.71
same,glycan array binding signal (z-score),[8],-1.08
same,glycan array binding signal (z-score),[9],0.389
same,glycan array binding signal (z-score),[10],-0.426
same,glycan array binding signal (z-score),[11],0.987
same,glycan array binding signal (z-score),[12],0.086
same,glycan array binding signal (z-score),[13],-0.517
same,glycan array binding signal (z-score),[14],0.708
same,glycan array binding signal (z-score),[15],-0.299
same,glycan array binding signal (z-score),[16],1.42
same,glycan array binding signal (z-score),[17],0.559
same,glycan array binding signal (z-score),[18],0.014
same,glycan array binding signal (z-score),[19],-0.527
same,glycan array binding signal (z-score),[20],-0.537
same,glycan array binding signal (z-score),[21],2.29
same,glycan array binding signal (z-score),[22],-1.52
same,glycan array binding signal (z-score),[23],1.67
same,glycan array binding signal (z-score),[24],0.929
same,glycan array binding signal (z-score),[25],-0.223
same,glycan array binding signal (z-score),[26],0.367
same,glycan array binding signal (z-score),[27],0.131
same,glycan array binding signal (z-score),[28],0.025
same,glycan array binding signal (z-score),[29],-0.457
same,glycan array binding signal (z-score),[30],-0.935
same,glycan array binding signal (z-score),[31],0.37
same,glycan array binding signal (z-score),[32],1.1
same,glycan array binding signal (z-score),[33],-0.411
same,glycan array binding signal (z-score),[34],-0.057
same,glycan array binding signal (z-score),[35],-0.859
same,glycan array binding signal (z-score),[36],-0.633
same,glycan array binding signal (z-score),[37],-0.33
same,glycan array binding signal (z-score),[38],0.528
same,glycan array binding signal (z-score),[39],1.75
same,glycan array binding signal (z-score),[40],-0.007
same,glycan array binding signal (z-score),[41],-0.634
same,glycan array binding signal (z-score),[42],-1.45
same,glycan array binding signal (z-score),[43],-0.649
same,glycan array binding signal (z-score),[44],-0.29
same,glycan array binding signal (z-score),[45],-0.449

# 2 entries from above, reformatted:
binder | measurement | setting | value
B1 | glycan array binding signal (z-score) | [39] | 1.75
same | glycan array binding signal (z-score) | [40] | -0.007
